Source: the supplement of paper PMC10849652
Some of the results follow.

Chains of the proteins cited; added tags and fusions are not shown. Lines headed by an entry give the natural chain unless they say otherwise; changes in a name come on top.
UniProt P27824: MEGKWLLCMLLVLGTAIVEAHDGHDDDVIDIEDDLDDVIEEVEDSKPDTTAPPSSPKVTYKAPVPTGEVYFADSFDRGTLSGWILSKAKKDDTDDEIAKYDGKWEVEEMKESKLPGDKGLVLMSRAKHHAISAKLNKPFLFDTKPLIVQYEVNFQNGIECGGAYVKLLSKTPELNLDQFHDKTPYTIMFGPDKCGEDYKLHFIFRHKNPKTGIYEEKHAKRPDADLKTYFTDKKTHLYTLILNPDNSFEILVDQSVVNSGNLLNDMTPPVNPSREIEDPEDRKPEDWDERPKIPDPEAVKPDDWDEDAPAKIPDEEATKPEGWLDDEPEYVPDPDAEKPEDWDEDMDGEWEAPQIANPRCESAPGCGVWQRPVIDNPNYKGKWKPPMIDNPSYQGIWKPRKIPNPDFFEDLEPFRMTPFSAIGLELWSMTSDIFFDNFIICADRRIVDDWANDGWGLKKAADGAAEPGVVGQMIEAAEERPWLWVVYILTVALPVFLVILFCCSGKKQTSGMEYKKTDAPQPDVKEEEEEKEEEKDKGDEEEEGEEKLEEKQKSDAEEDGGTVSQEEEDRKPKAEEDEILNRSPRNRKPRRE
UniProt P0C0L4: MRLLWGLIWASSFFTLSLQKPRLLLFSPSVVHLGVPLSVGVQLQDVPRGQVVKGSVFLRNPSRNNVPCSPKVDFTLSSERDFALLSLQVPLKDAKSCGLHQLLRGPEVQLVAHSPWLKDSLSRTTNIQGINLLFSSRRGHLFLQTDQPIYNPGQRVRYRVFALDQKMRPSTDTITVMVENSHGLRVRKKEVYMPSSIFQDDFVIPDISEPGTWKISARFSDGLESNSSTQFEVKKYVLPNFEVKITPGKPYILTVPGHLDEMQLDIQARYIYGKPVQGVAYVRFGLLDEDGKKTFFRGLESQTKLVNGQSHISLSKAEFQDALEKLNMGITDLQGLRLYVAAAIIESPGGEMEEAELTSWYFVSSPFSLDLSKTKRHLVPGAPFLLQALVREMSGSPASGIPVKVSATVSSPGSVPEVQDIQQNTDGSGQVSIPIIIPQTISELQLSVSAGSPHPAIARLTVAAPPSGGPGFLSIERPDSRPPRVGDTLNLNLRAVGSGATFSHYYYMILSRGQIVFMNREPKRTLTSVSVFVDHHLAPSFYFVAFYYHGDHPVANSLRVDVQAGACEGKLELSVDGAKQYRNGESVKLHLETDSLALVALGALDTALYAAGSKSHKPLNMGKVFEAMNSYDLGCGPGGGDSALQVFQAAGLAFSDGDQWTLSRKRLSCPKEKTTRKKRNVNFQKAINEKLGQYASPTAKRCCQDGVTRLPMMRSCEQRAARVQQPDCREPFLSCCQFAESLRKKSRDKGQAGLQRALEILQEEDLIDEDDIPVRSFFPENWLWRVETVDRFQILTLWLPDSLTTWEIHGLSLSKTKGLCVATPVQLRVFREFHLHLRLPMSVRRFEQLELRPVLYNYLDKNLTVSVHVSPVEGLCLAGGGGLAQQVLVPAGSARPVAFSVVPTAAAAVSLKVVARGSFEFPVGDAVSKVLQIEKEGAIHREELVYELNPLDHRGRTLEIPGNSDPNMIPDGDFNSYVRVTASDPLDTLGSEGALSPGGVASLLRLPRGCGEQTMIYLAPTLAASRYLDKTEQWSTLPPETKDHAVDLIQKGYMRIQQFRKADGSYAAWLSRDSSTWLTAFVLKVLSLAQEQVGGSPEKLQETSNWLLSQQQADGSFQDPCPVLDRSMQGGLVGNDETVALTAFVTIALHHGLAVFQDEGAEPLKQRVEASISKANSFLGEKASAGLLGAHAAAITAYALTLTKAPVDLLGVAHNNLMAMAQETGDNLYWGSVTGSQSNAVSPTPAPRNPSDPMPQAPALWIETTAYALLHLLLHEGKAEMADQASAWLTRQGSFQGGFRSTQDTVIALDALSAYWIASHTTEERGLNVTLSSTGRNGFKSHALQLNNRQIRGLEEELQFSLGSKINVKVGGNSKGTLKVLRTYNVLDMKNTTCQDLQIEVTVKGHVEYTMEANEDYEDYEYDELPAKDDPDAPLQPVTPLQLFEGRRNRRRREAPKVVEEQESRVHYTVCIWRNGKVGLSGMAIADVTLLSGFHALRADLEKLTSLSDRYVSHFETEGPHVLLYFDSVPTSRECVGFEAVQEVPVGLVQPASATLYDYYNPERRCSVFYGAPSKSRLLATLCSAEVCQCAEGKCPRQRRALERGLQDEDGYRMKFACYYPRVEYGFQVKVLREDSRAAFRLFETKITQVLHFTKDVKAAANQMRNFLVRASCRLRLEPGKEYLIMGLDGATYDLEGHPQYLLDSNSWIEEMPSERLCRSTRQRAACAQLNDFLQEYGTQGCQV
UniProt P35219: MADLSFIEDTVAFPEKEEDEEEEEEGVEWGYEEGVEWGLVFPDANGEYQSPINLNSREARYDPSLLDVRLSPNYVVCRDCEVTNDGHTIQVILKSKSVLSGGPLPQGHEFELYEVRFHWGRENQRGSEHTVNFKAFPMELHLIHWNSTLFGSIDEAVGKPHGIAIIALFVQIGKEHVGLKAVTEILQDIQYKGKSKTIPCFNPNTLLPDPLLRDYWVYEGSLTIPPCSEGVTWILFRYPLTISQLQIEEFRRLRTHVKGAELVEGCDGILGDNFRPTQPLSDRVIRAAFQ
UniProt P00915: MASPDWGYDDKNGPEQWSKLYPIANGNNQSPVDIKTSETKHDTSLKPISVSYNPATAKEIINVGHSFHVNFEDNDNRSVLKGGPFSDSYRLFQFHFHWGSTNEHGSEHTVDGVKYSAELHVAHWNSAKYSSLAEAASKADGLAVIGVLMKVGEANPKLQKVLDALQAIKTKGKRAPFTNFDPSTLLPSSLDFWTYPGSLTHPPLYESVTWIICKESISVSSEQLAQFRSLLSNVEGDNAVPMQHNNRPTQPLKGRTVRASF
UniProt Q8IXQ3: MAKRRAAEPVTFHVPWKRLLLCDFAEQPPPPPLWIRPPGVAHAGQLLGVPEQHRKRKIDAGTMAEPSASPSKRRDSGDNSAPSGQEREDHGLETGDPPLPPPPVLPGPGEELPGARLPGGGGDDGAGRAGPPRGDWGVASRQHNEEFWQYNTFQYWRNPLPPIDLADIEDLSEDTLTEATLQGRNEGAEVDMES
UniProt Q01518, whole entry, looked up: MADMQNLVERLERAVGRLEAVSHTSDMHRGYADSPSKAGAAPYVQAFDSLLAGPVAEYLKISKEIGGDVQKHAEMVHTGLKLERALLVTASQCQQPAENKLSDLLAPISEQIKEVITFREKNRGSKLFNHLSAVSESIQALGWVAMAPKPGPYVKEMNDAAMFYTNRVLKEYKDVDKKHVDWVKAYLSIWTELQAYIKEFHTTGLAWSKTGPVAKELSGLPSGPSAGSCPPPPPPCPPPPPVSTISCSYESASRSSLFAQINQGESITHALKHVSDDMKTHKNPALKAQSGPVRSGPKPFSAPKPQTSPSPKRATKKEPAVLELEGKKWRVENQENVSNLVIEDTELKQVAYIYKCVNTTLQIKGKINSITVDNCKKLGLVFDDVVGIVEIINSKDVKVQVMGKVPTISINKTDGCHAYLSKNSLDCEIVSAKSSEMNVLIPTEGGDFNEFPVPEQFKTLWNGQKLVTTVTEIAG
UniProt Q8TCD1: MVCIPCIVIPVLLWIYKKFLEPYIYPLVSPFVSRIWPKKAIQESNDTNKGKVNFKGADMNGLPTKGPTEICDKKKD
UniProt Q8N999, whole entry, looked up: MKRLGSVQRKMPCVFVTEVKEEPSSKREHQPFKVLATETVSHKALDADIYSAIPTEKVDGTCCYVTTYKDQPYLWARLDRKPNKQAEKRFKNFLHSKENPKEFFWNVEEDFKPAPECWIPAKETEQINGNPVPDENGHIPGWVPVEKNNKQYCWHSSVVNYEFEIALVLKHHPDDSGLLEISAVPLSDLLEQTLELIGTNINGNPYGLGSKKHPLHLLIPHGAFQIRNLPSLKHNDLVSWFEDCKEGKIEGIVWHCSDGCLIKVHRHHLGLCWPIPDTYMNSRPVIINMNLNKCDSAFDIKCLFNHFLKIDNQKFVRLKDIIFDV
UniProt Q0VDD7: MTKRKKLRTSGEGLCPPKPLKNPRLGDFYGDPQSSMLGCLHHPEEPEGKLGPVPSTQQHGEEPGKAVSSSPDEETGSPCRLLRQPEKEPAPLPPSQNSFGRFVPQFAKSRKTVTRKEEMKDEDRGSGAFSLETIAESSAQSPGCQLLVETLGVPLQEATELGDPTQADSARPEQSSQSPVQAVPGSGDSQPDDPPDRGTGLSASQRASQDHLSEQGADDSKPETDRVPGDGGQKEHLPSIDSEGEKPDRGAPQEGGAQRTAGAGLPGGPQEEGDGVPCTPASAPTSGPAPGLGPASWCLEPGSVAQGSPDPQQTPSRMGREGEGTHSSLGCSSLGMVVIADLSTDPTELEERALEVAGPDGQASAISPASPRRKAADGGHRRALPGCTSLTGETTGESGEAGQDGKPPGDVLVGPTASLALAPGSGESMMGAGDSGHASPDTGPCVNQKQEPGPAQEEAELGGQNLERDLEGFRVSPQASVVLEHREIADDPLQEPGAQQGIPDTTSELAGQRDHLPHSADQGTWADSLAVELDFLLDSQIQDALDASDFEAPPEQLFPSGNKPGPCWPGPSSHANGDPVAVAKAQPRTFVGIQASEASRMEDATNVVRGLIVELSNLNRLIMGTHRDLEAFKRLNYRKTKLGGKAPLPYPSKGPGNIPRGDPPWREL
UniProt Q9Y376: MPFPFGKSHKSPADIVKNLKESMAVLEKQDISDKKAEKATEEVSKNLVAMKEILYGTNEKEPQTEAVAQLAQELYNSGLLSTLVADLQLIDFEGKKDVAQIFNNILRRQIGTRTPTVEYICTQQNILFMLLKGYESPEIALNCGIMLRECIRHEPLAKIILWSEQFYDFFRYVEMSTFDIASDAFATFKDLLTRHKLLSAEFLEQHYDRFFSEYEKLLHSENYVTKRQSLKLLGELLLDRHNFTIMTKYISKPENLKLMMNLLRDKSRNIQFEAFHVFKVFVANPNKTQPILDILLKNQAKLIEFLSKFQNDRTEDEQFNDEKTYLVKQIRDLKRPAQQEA
UniProt Q96GQ5: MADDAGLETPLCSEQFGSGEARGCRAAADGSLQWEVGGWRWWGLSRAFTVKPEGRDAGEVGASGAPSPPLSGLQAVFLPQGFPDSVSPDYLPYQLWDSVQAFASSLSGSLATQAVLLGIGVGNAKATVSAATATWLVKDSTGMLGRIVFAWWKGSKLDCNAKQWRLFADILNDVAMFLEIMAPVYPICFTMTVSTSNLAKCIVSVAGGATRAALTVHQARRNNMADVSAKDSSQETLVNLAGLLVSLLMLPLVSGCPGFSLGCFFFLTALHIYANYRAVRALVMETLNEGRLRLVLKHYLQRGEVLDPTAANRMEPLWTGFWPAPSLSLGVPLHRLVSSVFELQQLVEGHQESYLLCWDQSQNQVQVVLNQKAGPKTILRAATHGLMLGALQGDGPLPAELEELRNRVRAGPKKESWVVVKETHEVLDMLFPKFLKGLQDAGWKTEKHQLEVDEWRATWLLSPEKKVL
UniProt P0DMB2: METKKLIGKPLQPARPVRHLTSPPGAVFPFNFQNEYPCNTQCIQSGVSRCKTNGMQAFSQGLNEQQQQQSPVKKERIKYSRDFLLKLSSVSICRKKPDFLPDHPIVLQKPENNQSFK
UniProt O43684, whole entry, looked up: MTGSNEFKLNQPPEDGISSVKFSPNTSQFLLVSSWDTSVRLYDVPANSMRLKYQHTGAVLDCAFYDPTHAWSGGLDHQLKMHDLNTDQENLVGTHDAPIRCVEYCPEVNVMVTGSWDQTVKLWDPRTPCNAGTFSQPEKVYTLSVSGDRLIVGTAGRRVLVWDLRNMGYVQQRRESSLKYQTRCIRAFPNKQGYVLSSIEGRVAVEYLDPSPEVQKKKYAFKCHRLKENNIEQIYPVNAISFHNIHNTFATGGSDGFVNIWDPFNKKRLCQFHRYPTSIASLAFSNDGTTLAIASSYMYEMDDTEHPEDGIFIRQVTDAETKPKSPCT
UniProt Q8IYL3: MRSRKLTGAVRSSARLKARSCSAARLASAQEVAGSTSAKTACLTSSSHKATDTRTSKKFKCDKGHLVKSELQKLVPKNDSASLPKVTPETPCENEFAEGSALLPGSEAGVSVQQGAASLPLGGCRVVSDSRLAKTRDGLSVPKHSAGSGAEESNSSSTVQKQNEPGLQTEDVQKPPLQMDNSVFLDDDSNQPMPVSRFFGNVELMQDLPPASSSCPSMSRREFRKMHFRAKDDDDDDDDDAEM
UniProt Q13137: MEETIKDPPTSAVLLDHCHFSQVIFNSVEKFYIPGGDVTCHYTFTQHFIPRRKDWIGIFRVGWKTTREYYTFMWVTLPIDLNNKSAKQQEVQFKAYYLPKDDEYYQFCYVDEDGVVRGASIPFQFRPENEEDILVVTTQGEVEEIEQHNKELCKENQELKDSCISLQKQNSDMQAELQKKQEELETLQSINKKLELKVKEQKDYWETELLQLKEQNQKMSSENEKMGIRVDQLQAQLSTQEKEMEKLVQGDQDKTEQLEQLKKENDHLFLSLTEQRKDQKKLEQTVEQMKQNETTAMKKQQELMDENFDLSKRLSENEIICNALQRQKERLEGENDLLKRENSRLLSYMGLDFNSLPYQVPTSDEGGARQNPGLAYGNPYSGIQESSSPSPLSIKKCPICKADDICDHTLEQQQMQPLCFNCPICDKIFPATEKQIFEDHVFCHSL

Tests used:
Experiment in all cases: log2 fold change, soluble protein after heating vs DMSO (PISA); higher = thermal stabilisation; K562 cells, 10 uM, 30 min; active = over 0.2 and 3.5 SD of the protein, either way, in both replicates (recomputed)
[1] = compound: C1=CC=C(C=C1)[C@H](COC2=CC3=C(C=C2)NC(=O)N3)NC(=O)C4=CC=CN(C4=O)CC5=CC(=C(C=C5)F)F
In short: (§1)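 K562 cells (2×10^6 cells/mL) were treated with 10 μM compound for 30 min, and aliquots were heated for 3 min over 48°C-58°C. Pooled aliquots were extracted in PBS with 0.5% NP-40 at 4°C, and the supernatant after 21,000xg for 90 min was measured by TMTpro 16plex LC-MS/MS with channel sums equalised. Reported thermal stability, relative to control samples and from duplicates, is a log2 fold change.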

[2] = compound: CC1=C(SC2=C1C(=N[C@H](C3=NN=C(N32)C)CC(=O)N)C4=CC=C(C=C4)Cl)C
In short: as §1

[3] = compound: CC1=C2C(=CC=C1)N=C(N(C2=O)C3=CC=CC=C3C)CN4C=NC5=C(N=CN=C54)N
In short: as §1

[4] = compound: Cc1sc2c(c1C)C(c1ccc(Cl)cc1)=N[C@@H](CC(=O)OC(C)(C)C)c1nnc(C)n1-2
In short: as §1

[5] = compound: c1ccc([C@@H]2C[C@H]2NC2CCNCC2)cc1
In short: as §1

Measured: log2 fold change

C6orf47 (UniProt O95873)
inactive: [1] 0.002 | [2] 0.077 | [3] 0.032 | [4] -0.025 | [5] 0.022

CANX isoform 2 (UniProt P27824)
inactive: [1] 0.078 | [2] -0.022 | [3] -0.04 | [4] 0.012 | [5] 0.018

C4A (UniProt P0C0L4)
inactive: [1] -0.158 | [2] -0.067 | [3] 0.127 | [4] -0.101 | [5] -0.01

C12orf73 (UniProt Q69YU5)
inactive: [1] -0.029 | [2] 0.116 | [3] -0.108 | [4] 0.03 | [5] 0.082

C9orf72 (UniProt Q96LT7)
inactive: [1] 0.02 | [2] 0.009 | [3] 0.085 | [4] -0.115 | [5] 0.002

C8orf82 (UniProt Q6P1X6)
inactive: [1] 0.024 | [2] -0.043 | [3] 0.055 | [4] 0.001 | [5] 0.026

C2CD2L (UniProt O14523)
inactive: [1] 0.065 | [2] 0.031 | [3] 0.009 | [4] 0.01 | [5] 0.013

CA8 (UniProt P35219)
inactive: [1] 0.006 | [2] 0.059 | [3] 0.052 | [4] 0.025 | [5] -0.045

CA1 (UniProt P00915)
inactive: [1] -0.007 | [2] 0.039 | [3] 0.019 | [4] 0.007 | [5] 0.018

BST2 (UniProt Q10589)
inactive: [1] 0.056 | [2] 0.019 | [3] -0.012 | [4] 0.068 | [5] 0.055

C18orf25 isoform 2 (UniProt Q96B23)
inactive: [1] -0.006 | [2] 0.049 | [3] 0.074 | [4] 0.022 | [5] 0.097

CAND2 (UniProt O75155)
inactive: [1] -0.006 | [2] 0.007 | [3] -0.024 | [4] 0.051 | [5] 0.069

C17orf80 (UniProt Q9BSJ5)
inactive: [1] 0.139 | [2] -0.014 | [3] -0.042 | [4] 0.037 | [5] -0.01

C9orf40 (UniProt Q8IXQ3)
inactive: [1] 0.041 | [2] -0.058 | [3] 0.039 | [4] -0.062 | [5] 0.072

CAP1 (UniProt Q01518)
inactive: [1] -0.012 | [2] 0.05 | [3] 0.024 | [4] -0.025 | [5] -0.044

CALU isoform 4 (UniProt O43852)
inactive: [1] 0.058 | [2] 0.017 | [3] 0.058 | [4] 0.027 | [5] 0.017

CALM2 (UniProt P0DP24)
inactive: [1] 0.075 | [2] -0.016 | [3] -0.029 | [4] -0.022 | [5] 0.018

BZW1 isoform 3 (UniProt Q7L1Q6)
inactive: [1] -0.227 | [2] 0.002 | [3] 0.044 | [4] -0.044 | [5] -0.017

C6orf89 isoform 2 (UniProt Q6UWU4)
inactive: [1] 0.04 | [2] 0.057 | [3] -0.016 | [4] 0.007 | [5] -0.105

CAPG (UniProt P40121)
inactive: [1] -0.014 | [2] 0.05 | [3] 0.034 | [4] -0.039 | [5] 0.008

C18orf32 (UniProt Q8TCD1)
inactive: [1] 0.053 | [2] 0.112 | [3] 0.028 | [4] 0.004 | [5] 0

C12orf29 (UniProt Q8N999)
inactive: [1] -0.001 | [2] 0.018 | [3] -0.027 | [4] 0.18 | [5] 0.046

C9orf78 (UniProt Q9NZ63)
inactive: [1] 0.001 | [2] -0.021 | [3] 0.005 | [4] 0.014 | [5] 0.044

C19orf57 (UniProt Q0VDD7)
inactive: [1] 0.051 | [2] -0.039 | [3] 0.012 | [5] 0.116

C2orf49 (UniProt Q9BVC5)
inactive: [1] -0.074 | [2] -0.171 | [3] -0.106 | [4] 0.087 | [5] -0.088

Copied from the results shown (3 entries):
CAPG (UniProt P40121)
inactive: [1] -0.014 | [2] 0.05 | [3] 0.034 | [4] -0.039 | [5] 0.008

C18orf32 (UniProt Q8TCD1)
inactive: [1] 0.053 | [2] 0.112 | [3] 0.028 | [4] 0.004 | [5] 0

C12orf29 (UniProt Q8N999)
inactive: [1] -0.001 | [2] 0.018 | [3] -0.027 | [4] 0.18 | [5] 0.046

Following part:

C1orf122 (UniProt Q6ZSJ8)
inactive: [1] 0 | [2] 0.02 | [3] 0.078 | [4] -0.088 | [5] -0.04

C11orf98 (UniProt E9PRG8)
inactive: [1] 0.079 | [2] -0.279 | [3] -0.209 | [4] 0.17 | [5] 0.045

C1GALT1 (UniProt Q9NS00)
inactive: [1] -0.005 | [2] 0.02 | [3] -0.011 | [4] 0.013 | [5] -0.022

C2CD5 isoform 4 (UniProt Q86YS7)
inactive: [1] 0.004 | [2] 0.052 | [3] 0.131 | [4] -0.027 | [5] 0.017

CA13 (UniProt Q8N1Q1)
inactive: [1] 0.014 | [2] 0.128 | [3] 0.092 | [4] 0.254 | [5] -0.169

CACTIN isoform 2 (UniProt Q8WUQ7)
inactive: [1] 0.052 | [2] 0.097 | [3] 0.126 | [4] 0.135 | [5] 0.092

CALR (UniProt P27797)
inactive: [1] 0.062 | [2] -0.022 | [3] -0.054 | [4] 0.002 | [5] -0.004

CAMLG (UniProt P49069)
inactive: [1] -0.008 | [2] 0.006 | [3] 0.114 | [4] -0.015 | [5] 0.035

C9orf64 (UniProt Q5T6V5)
inactive: [1] -0.15 | [2] 0.054 | [3] 0.097 | [4] 0.052 | [5] -0.066

CAB39 (UniProt Q9Y376)
inactive: [1] 0.014 | [2] 0.008 | [3] 0.011 | [4] -0.019 | [5] 0.01

C16orf58 (UniProt Q96GQ5)
inactive: [1] 0.023 | [2] 0.025 | [3] 0.088 | [4] -0.042 | [5] 0.013

BUB1B isoform 3 (UniProt O60566)
inactive: [1] -0.077 | [2] -0.004 | [3] 0.1 | [4] 0.01 | [5] -0.002

C5orf22 (UniProt Q49AR2)
inactive: [1] -0.055 | [2] 0.071 | [3] 0.023 | [4] 0.041 | [5] 0.007

BTAF1 (UniProt O14981)
inactive: [1] 0.051 | [2] -0.003 | [3] 0.124 | [4] 0.005 | [5] 0.055

CARHSP1 (UniProt Q9Y2V2)
inactive: [1] 0.03 | [2] 0.073 | [3] 0.03 | [4] 0.005 | [5] -0.007

C8orf88 (UniProt P0DMB2)
inactive: [1] 0.083 | [2] 0.008 | [3] -0.149 | [5] 0.279

CAPN2 (UniProt P17655)
inactive: [1] -0.013 | [2] 0.065 | [3] -0.003 | [4] -0.008 | [5] 0.006

C3orf33 (UniProt Q6P1S2)
inactive: [1] -0.018 | [2] 0.08 | [3] 0.048 | [4] -0.087 | [5] 0.009

CAPZA1 (UniProt P52907)
inactive: [1] 0.013 | [2] 0.086 | [3] 0.073 | [4] -0.055 | [5] -0.025

BUB3 (UniProt O43684)
inactive: [1] 0.007 | [2] 0.03 | [3] 0.031 | [4] -0.007 | [5] 0.008

C1orf174 (UniProt Q8IYL3)
inactive: [1] 0.051 | [2] 0.114 | [3] -0.048 | [4] 0.013 | [5] -0.001

C1orf109 (UniProt Q9NX04)
inactive: [1] 0.05 | [2] 0.003 | [3] -0.164 | [4] 0.014 | [5] 0.076

C8orf76 (UniProt Q96K31)
inactive: [1] 0.009 | [2] -0.023 | [3] 0.044 | [4] 0.027 | [5] 0.017

C5orf51 (UniProt A6NDU8)
inactive: [1] -0.017 | [2] 0.036 | [3] 0.136 | [4] -0.044 | [5] 0.006

C19orf25 (UniProt Q9UFG5)
inactive: [1] -0.016 | [2] 0.067 | [3] 0.471 | [4] -0.036 | [5] -0.065

CALCOCO2 isoform 4 (UniProt Q13137)
inactive: [1] -0.036 | [2] -0.002 | [3] -0.04 | [4] 0.049 | [5] 0.026

CAPZA2 (UniProt P47755)
inactive: [1] -0.016 | [2] 0.071 | [3] 0.035 | [4] -0.034 | [5] -0.012

C4orf33 (UniProt Q8N1A6)
inactive: [1] -0.041 | [2] 0.176 | [3] 0.066 | [4] 0.024 | [5] -0.003
